The strong results were mostly taken out for another list; the other results follow. The effect is printed as a negative number.
Experiments:
[1] = target: T1, human ether-à-go-go-related gene (hERG) potassium channel (human, UniProt Q12809); test: primary screen, population patch clamp on CHO cells stably expressing hERG; higher = less effect of the substance
Description: (§1) Briefly, Chinese hamster ovary (CHO) cells stably expressing the hERG channel were dislodged from tissue culture flasks and dispensed into PPC plates. […] During the recording, background leak currents were estimated by a 100 ms step to -80 mV from an initial holding potential of -70 mV and subtracted from the subsequent current measurement. The campaign was conducted in two phases using slight differences in recording protocol. In the first phase, the initial voltage pulse used a 100 ms step to -30 mV from a holding potential of -70 mV, a 2 s conditioning step to +25 mV, and a 2 s test step to -30 mV. During the second phase of the screen, the potential during the conditioning step was raised to +45 mV. In both phases of the campaign, a secondary voltage pulse was applied using the same parameters as the second phase initial pulse. The initial and secondary pulses were applied in the absence of compound, and upon application of 1 μM and 10 μM test concentrations. Small molecule effects on hERG current density were quantified by measuring the peak tail current during the secondary voltage pulse prior to compound application and dividing by the amplitude following each test concentration.

Protein sequences, listed by entry. Tags and fused reporters are not part of them. Lines headed by an entry give the natural chain unless they say otherwise; changes in a name come on top.
UniProt Q12809: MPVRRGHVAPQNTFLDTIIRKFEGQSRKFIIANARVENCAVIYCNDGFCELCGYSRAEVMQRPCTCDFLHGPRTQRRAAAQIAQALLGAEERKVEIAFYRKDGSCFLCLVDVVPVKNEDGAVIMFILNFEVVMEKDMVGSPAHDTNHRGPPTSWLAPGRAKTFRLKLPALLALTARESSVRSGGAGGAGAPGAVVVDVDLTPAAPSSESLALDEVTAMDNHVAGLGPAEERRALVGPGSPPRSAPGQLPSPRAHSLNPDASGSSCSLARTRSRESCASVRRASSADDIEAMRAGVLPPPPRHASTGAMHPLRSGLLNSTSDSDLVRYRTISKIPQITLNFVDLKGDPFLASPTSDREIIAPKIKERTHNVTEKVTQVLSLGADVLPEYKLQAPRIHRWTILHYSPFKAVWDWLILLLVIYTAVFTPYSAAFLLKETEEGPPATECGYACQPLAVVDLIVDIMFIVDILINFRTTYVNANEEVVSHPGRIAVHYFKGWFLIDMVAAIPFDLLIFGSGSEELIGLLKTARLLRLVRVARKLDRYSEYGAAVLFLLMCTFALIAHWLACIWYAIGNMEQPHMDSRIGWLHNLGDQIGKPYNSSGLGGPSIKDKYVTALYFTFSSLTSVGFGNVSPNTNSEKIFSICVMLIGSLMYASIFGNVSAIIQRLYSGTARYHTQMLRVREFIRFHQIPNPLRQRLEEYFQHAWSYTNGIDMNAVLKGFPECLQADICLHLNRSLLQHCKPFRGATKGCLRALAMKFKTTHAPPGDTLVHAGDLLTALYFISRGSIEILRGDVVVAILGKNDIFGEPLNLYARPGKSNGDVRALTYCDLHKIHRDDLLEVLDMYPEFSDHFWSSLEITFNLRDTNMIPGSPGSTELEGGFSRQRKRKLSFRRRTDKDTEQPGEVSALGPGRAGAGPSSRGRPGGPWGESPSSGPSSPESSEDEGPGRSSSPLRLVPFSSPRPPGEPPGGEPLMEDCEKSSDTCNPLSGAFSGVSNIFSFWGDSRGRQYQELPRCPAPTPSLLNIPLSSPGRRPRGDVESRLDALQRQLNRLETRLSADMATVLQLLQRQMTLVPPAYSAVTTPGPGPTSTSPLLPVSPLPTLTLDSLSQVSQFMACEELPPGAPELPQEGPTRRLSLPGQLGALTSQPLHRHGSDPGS

[2] = target: T1, human ether-à-go-go-related gene (hERG) potassium channel; test: as above; remark: listed apart in the source
Description: as §1, with “Small molecule effects on hERG current density were quantified by measuring the peak tail current during the secondary voltage pulse prior to compound application and dividing by the amplitude following each test concentration.” left out
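For hERG current change (%, negative = inhibition) at 10uM in this document: peak tail current of the secondary pulse compared with the same well before compound.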

CCC(C)(CN(C)C)OC(=O)c1ccccc1.Cl (centres unmarked)
hERG current change (%, negative = inhibition) at 1uM [1]: 8.68% | hERG current change (%, negative = inhibition) at 10uM [2]: 4.72%
